Data on two molecules can be found in patent publication US6800470B2, “Mammalian sphingosine kinase type 2 isoforms, cloning, expression and methods of use thereof” (Sankyo Company, Ltd., priority 2000, dated 2004).

The series concerns HEK293 cells. Put plainly: SPHK activity in HEK293 cells transiently transfected with SPHK expression vectors (cytosol and particulate fractions). In kind it is cell-based, human. Particulars: transfected HEK293 cells, 100,000×g fractions. The method, then: In FIG. 3A, HEK 293 cells were transiently transfected with an empty vector or with mSPHK2 or hSPHK2 expression vectors. After 24 hours, SPHK activity was measured in cytosol (open bars) and particulate fractions (filled bars). The data are means±S.D. Parental and vector-transfected cells had basal SPHK activities of 26 and 37 pmol/min/mg, respectively.
Human embryonic kidney cells (HEK293, ATCC CRL-1573) and NIH 3T3 fibroblasts (ATCC CRL-1658) were cultured as described in Olivera, A., Kohama, T., Edsall, L. C., Nava, V., Cuvillier, O., Poulton, S., and Spiegel, S., J. Cell Biol., 147 (1999) 545-558. HEK293 cells were seeded at 6×10^5 per well in poly-L-lysine coated 6 well plates. After 24 hours, cells were transfected with 1 μg of vector alone or with vectors containing sphingosine kinase constructs and 6 μl of “Lipofectamine PLUS” reagent plus 4 μl of “Lipofectamine” reagent per well. One to three days after transfection, cells were harvested and lysed by freeze-thawing as described in Kohama, T., Olivera, A., Edsall, L., Nagiec, M. M., Dickson, R., and Spiegel, S., J. Biol. Chem., 273, (1998), 23722-23728. […] SPHK activity was determined in the presence of sphingosine, prepared as a complex with 4 mg/ml BSA, and [g-32P] […] 32P-SPP was separated by TLC and quantified with a phosphoimager as previously described.

B1: mSPHK2: murine sphingosine kinase type 2, polypeptide of 617 amino acids (SEQ ID NO 12) (protein)
chain: MAPPPLLPVAASTPILHGEFGSYPANGPRFALTLTTQALHIQRLRPKPEARPRDGLVSLDEVSGCGTLQSRSPEDTAAYFCIYTYPRGRRGGRRRATRTFRADGATTYEENRAEAQRWATALTCLLRGVPLSGDQEITPELLPRKPRLLILVNPFGGRGLAWQRCMDHVVPMISEAGLSFNLIQTERQNHARELVQGLSLSEWEGIVTVSGDGLLYEVLNGLLDRPDWEDAVRMPIGVLPCGSGNALAGAVSHHGGFEQVVGVDLLLNCSLLLCRGGSHPLDLLSVTLASGSRCFSFLSVAWGFLSDVDIHSERFRALGSARFTLGAVLGLASLHTYRGRLSYLPATTEPALPIPGHSLPRAKSELVLAPAPAPAATHSPLHRSVSDLPLPLPQPALVSPGSPEPLPDLSLNGGGPELTGDWGGAGDAPLSPDPLLPSSPNALKTAQLSPIAEGPPEMPASSGFLPPTHSAPEASTWGPVDHLLPPLGSPLPQDWVTIEGEFVLMLGILTSHLCADLMAAPHARFDDGVVHLCWVRSGISRAALLRIFLAMEHGNHFSLGCPHLGYAAARAFRLEPLTPRGLLTVDGELVEYGPIQAQVHPGLATLLTGPAGQKPQA
With B1, the “share of SPHK activity that is membrane-associated” value came out at 17%.

B2: hSPHK2: human sphingosine kinase type 2, polypeptide of 618 amino acids (SEQ ID NO 14) (protein)
chain: MAPPPPPLAASTPLLHGEFGSYPARGPRFALTLTSQALHIQRLRPKPEARPRGGLVPLAEVSGCCTLRSRSPSDSAAYFCIYTYPRGRRGARRRATRTFRADGAATYEENRAEAQRWATALTCLLRGLPLPGDGEITPDLLPRPPRLLLLVNPFGGRGLAWQWCKNHVLPMISEAGLSFNLIQTERQNHARELVQGLSLSEWDGIVTVSGDGLLHEVLNGLLDRPDWEEAVKMPVGILPCGSGNALAGAVNQHGGFEPALGLDLLLNCSLLLCRGGGHPLDLLSVTLASGSRCFSFLSVAWGFVSDVDIQSERFRALGSARFTLGTVLGLATLHTYRGRLSYLPATVEPASPTPAHSLPRAKSELTLTPDPAPPMAHSPLHRSVSDLPLPLPQPALASPGSPEPLPILSLNGGGPELAGDWGGAGDAPLSPDPLLSSPPGSPKAALHSPVSEGAPVIPPSSGLPLPTPDARVGASTCGPPDHLLPPLGTPLPPDWVTLEGDFVLMLAISPSHLGADLVAAPHARFDDGLVHLCWVRSGISRAALLRLFLAMERGSHFSLGCPQLGYAAARAFRLEPLTPRGVLTVDGEQVEYGPLQAQMHPGIGTLLTGPPGCPGREP
B2: the “share of SPHK activity that is membrane-associated” value was 26%.
